This series has as its target Max bHLHZ (UniProt P61244). Put plainly: CD. As to conditions: 10 uM monomer, 10 uM duplex, helicity 49% to 67%; CD: 15.1 mM Na2HPO4, 4.9 mM KH2PO4, 50 mM NaCl, pH 7.4, 22 C; recombinant protein.

By UniProt entry, the sequences of proteins in these tests, tags left out. Residues count along the entry.
UniProt P61244, 22-113: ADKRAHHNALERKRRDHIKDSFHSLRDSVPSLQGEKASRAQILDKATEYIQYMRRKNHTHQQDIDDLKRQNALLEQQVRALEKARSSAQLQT

The exact form of at least one protein or probe is not confirmed. At least one verdict rests on a figure or table, not on a statement of the authors.

In the case of “TGCAGGAACCACGTGGTGAAGGTT (double strand) [E-box DNA]”, the binding result is on record as “binds”.
